Test results: patent US20240034762A1 (YALE UNIVERSITY, published 2024)
Results are given in words; binding and its absence hold for the method and conditions named. Some entries that bind do so weakly or less than the wild type. Where a sequence is shown, tags or fusion partners need not be part of it.

T1: soluble extracellular domain of human α-Klotho (aa 1-980) fused to a 6xHis tag (human) (UniProt Q9UEF7)
T1 sequence: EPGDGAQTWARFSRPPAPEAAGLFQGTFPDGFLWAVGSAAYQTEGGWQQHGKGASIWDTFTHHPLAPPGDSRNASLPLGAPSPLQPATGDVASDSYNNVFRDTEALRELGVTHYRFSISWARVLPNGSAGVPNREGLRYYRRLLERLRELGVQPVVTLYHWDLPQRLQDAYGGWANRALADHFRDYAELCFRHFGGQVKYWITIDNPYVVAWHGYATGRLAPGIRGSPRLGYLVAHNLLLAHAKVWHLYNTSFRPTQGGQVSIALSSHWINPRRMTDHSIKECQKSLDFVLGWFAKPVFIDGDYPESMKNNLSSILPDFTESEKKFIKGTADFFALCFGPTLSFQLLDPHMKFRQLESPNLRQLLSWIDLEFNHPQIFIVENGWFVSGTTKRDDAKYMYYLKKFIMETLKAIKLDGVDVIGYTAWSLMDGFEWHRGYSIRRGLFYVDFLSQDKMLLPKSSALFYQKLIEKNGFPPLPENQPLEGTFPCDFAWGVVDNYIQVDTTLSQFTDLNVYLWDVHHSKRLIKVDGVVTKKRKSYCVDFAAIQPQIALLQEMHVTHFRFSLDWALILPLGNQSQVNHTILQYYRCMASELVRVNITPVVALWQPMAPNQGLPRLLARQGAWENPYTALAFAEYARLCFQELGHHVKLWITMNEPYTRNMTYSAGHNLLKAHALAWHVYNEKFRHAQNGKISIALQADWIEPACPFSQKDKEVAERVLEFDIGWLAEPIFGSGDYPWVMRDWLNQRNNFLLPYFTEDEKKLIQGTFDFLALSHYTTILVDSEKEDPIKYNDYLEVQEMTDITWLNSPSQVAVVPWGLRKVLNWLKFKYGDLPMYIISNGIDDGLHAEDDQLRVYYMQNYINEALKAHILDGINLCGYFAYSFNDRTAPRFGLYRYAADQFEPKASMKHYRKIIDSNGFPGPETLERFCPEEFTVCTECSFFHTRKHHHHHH


Key:
[1] = biological target: T1, soluble extracellular domain of human α-Klotho (aa 1-980) fused to a 6xHis tag (human); assay: BLI
[2] = biological target: T1, soluble extracellular domain of human α-Klotho (aa 1-980) fused to a 6xHis tag (human); assay: BLI; figure legend
[3] = biological target: T1, soluble extracellular domain of human α-Klotho (aa 1-980) fused to a 6xHis tag (human); assay: BLI; GST fusions on anti-GST sensors, sKLA as analyte
[4] = biological target: T1, soluble extracellular domain of human α-Klotho (aa 1-980) fused to a 6xHis tag (human); assay: BLI sensorgrams; GST fusion captured on anti-GST biosensor, dipped into sKLA at 6.25, 12.5, 25, 50, 100 and 200 nM

binding [1] | binding [2] | binding [3] | binding [4] | Binder
binds | binds | binds | binds | SAEDNSPMASDPLGVVRGGRVNTHAGGTGPEG (peptide, not shown: a dimerising Fc or GST) [GST fusion of repeat 2 (R2) of the human FGF23 C-terminal tail]
binds | binds | binds | binds | SAEDDSERDPLNVLKPRARMTPAPAS (peptide, not shown: a dimerising Fc or GST) [GST fusion of repeat 1 (R1, aa 180-205) of the human FGF23 C-terminal tail]
